In patent publication US20220008438A1 (priority 2020, published 2022):
For at least one compound, name, drawing or mass did not settle the structure.

What was measured:
[1] = system: HT29 cells (colon adenocarcinoma); details: cell cultures; cited from earlier work
[2] = system: HL60 cells (pro-myelocytic leukemia); details: cell cultures; cited from earlier work
prostate cell DNA = details: physiological concentration (10, unit not given); cited from earlier work
cyclooxygenase = details: cited from earlier work
[3] = Antioxidant activity compared with coenzyme Q10
LDL = details: micro-molar amounts; LDL incubated with CuSO4; cited from earlier work
erythrocytes = details: reduced concentrations; oxidative stress; cited from earlier work

In the case of `OCCc1ccc(O)c(O)c1` [HT, Hydroxytyrosol], the apoptosis [1] is given as “inducing apoptosis”, the apoptosis [2] is given as “inducing apoptosis” and the “inhibition of damage caused by the H2O2 radical in prostate cell DNA” value (prostate cell DNA) is given as 23%. For the same compound, the activity of cyclooxygenase (cyclooxygenase) was “did not affect”, the “antioxidant activity relative to coenzyme Q10” value [3] was 3 times and the “formation of lipid peroxides” value (LDL) was “inhibited the formation of lipid peroxides”. The “loss of vitamin E” value (LDL) was “prevented the loss of vitamin E” and the hemolysis (erythrocytes) was “significantly reducing hemolysis”.
